Patent US20170304306A1, “SELECTIVE NaV1.7 INHIBITORS FOR THE TREATMENT OF DIABETES” (CHROMOCELL CORPORATION, priority 2014, published 2017)
Some results were stated once for a whole list of compounds, not compound by compound.

Chains of the proteins cited; added tags and fusions are not shown.
UniProt Q99250, whole entry: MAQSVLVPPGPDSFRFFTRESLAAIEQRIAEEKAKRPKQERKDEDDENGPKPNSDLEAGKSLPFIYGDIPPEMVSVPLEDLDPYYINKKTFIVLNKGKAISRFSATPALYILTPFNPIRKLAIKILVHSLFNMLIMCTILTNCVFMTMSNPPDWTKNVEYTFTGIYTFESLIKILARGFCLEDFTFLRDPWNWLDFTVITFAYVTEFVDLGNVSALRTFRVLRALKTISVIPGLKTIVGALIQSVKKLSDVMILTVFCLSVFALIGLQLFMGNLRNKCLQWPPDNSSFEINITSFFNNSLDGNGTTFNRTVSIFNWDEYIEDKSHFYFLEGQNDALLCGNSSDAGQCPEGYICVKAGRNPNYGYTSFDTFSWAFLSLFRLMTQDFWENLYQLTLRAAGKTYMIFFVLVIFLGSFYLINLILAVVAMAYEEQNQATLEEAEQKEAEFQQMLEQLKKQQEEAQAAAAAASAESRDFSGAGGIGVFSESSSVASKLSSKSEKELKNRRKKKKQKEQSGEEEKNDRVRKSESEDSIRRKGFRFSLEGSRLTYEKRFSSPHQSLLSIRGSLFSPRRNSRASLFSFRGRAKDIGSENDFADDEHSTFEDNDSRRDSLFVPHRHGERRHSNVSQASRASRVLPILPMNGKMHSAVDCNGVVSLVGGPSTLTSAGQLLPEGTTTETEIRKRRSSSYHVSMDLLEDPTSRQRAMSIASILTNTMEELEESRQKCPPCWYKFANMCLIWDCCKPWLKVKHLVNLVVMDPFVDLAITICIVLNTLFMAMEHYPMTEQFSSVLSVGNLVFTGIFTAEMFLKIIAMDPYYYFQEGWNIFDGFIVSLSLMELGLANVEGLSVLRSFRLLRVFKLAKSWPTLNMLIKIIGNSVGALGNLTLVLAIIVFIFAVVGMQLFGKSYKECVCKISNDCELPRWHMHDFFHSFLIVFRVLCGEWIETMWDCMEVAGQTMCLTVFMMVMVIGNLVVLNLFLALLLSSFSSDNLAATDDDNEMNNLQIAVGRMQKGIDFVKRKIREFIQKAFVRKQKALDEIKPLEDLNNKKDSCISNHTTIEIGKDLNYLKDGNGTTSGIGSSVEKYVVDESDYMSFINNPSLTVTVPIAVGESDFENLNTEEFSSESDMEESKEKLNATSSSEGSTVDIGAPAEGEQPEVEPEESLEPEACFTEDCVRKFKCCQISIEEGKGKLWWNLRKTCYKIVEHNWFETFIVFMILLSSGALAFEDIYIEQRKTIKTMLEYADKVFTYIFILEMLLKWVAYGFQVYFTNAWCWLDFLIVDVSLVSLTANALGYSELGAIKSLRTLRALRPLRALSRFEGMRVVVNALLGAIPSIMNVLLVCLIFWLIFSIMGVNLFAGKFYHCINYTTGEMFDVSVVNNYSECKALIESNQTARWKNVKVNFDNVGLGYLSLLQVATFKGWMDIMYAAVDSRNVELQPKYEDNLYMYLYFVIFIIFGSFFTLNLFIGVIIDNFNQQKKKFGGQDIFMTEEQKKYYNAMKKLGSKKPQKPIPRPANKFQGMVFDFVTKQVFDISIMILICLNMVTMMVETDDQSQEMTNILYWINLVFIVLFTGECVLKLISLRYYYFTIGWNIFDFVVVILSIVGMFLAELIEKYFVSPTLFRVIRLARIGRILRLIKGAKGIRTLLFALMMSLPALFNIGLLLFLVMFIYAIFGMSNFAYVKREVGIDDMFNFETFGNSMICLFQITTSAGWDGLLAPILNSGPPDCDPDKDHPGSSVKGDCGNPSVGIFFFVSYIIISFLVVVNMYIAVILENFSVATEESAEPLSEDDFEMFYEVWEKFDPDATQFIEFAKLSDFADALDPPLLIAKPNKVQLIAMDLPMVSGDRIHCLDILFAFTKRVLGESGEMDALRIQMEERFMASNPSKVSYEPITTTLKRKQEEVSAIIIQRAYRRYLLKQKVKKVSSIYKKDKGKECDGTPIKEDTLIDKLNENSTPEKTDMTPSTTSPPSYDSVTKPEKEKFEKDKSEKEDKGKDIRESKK
UniProt Q9UQD0, whole entry: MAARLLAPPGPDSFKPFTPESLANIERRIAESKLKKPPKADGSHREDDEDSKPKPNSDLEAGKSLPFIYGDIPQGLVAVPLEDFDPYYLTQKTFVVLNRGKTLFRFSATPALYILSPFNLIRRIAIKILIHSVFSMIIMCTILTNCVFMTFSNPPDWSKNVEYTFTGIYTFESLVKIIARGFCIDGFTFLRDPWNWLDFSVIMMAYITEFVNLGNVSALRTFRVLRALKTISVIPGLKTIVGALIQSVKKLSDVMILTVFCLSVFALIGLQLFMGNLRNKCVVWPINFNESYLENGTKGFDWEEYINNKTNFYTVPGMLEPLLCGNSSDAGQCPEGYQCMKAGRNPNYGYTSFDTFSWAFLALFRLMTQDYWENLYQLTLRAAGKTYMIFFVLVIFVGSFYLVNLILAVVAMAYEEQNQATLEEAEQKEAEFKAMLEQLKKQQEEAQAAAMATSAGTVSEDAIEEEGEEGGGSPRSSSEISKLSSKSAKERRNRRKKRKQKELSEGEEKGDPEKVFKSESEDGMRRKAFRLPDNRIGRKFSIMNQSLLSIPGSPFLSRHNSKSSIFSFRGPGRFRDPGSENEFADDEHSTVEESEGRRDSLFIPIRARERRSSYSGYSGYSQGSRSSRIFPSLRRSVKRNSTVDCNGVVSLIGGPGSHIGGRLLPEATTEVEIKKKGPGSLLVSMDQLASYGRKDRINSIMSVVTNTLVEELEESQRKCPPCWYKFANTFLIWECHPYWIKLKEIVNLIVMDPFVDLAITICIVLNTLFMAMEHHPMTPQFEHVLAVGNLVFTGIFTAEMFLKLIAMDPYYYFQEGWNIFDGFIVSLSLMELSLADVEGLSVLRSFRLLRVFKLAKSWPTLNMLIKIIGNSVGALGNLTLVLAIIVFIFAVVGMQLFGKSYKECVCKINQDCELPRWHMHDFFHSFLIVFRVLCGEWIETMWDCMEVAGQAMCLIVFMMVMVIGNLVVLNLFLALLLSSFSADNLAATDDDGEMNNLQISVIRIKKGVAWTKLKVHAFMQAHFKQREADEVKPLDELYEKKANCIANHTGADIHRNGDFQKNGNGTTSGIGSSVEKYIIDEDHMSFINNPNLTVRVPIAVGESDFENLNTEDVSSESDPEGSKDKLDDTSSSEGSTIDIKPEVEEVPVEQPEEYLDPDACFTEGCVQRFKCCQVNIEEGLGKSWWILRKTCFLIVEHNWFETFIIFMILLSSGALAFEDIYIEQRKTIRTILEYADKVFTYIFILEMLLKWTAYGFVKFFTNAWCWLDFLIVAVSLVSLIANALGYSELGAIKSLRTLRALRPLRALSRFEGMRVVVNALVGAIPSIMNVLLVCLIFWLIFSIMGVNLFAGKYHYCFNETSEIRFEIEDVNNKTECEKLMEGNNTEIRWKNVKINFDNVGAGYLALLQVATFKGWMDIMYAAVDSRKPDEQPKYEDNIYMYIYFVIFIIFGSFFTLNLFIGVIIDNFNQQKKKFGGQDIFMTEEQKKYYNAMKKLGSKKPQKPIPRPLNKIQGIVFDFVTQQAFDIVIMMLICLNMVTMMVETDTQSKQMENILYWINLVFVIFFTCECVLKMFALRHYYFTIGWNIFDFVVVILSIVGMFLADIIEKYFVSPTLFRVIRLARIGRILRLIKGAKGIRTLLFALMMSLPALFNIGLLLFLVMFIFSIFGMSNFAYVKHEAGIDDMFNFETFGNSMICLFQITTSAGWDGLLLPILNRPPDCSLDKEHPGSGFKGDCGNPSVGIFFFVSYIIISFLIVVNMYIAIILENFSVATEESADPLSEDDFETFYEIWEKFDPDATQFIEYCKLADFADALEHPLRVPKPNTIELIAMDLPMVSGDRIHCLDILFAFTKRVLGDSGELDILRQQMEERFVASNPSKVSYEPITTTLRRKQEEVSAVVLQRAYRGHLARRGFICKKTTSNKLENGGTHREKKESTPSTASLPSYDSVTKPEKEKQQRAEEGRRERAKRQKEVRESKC

Experiments:
NaV1.2 = biological target: T1, NaV1.2 (Homo sapiens, UniProt Q99250); experiment: Patchliner electrophysiological in-vitro assay, NaV1.2; assay type: cell-based; details: Patchliner patch clamp
T1 construct: expressed in transfected cells; host or cells: CHO

NaV1.6 = biological target: T2, NaV1.6 (Homo sapiens, UniProt Q9UQD0); experiment: Patchliner electrophysiological in-vitro assay, NaV1.6; assay type: cell-based; details: Patchliner patch clamp
T2 construct: expressed in transfected cells; host or cells: CHO

For `O=C(O)CCNC(=O)c1cc(-c2cc(Cl)ccc2Oc2cc(F)c(S(=O)(=O)Nc3ncns3)cc2Cl)ccn1` [Compound 1, 3-(4-(2-(4-(N-(1,2,4-thiadiazol-5-yl)sulfamoyl)-2-chloro-5-fluorophenoxy)-5-chlorophenyl)picolinamido)propanoic acid], the “selectivity for NaV1.7 compared to NaV1.2” value (NaV1.2) was “at least 10 fold” and the “selectivity for NaV1.7 compared to NaV1.6” value (NaV1.6) was “at least 10 fold”.

For `NC(=O)CNCCCc1cc(Cl)ccc1Oc1cc(F)c(S(=O)(=O)Nc2cscn2)cc1Cl` [Compound 49, 2-((3-(5-chloro-2-(2-chloro-5-fluoro-4-(N-(thiazol-4-yl)sulfamoyl)phenoxy)phenyl)propyl)amino)acetamide], the “selectivity for NaV1.7 compared to NaV1.2” value (NaV1.2) was “at least 10 fold” and the “selectivity for NaV1.7 compared to NaV1.6” value (NaV1.6) was “at least 10 fold”.
